At least one compound was matched to its structure with a doubt left.
Test system: Mäusen
Experiment: Cardiac side effects: heart rate by ECG-triggered tachograph during the blood glucose test
Assay type: in vivo
Conditions: Dose 3,0 mg/kg oral; one hour after application; values in brackets = not significant (p > 0.05)
Description: Das Auftreten von unerwünschten Nebenwirkungen auf das Herz konnte für die erfindungsgemäßen Verbindungen für den therapeutisch angestrebten stoffwechselaktiven Dosisbereich ausgeschlossen werden. Als Nachweis diente die Messung der Herzfrequenz an Mäusen während der Testung auf blutzuckersenkende Wirkung (s.o.). Eine Stunde nach der oralen Applikation der Verbindungen wurde die Herzfrequenz mittels EKG-getriggertem Tachographen bestimmt. Die nachfolgende Tabelle gibt die Änderung der Herzfrequenz in % der Kontrollgruppe wieder.

Row | SMILES | Änderung der Herzfrequenz, % Änderung vom Wert der Kontrollgruppe
1 | CC(Cc1ccc(OCCO)cc1)N1CCOC(c2cccc(Cl)n2)C1 (centres unmarked) [Beispiel 6, N-[2-(4-(2-Hydroxyethoxy)-phenyl)-1-methylethyl]-2-(6-chlor-pyridin-2-yl)-morpholin] | (+ 4) %
2 | COC(=O)COc1ccc(CC(C)N2CCOC(c3cccc(Cl)n3)C2)cc1 (centres unmarked) [Beispiel 3, N-[2-(4-Carbomethoxymethoxyphenyl)-1-methylethyl]-2-(6-chlor-pyridin-2-yl)-morpholin] | (+ 6) %
